LiHisRS: 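Enzyme assay of histidyl-tRNA synthetase; the read-out is not stated. Target: Histidine-tRNA ligase, Leishmania infantum (UniProt A4I591). Compounds at 30 µM. Direction is inferred from retests: higher values go with stronger inhibition. The assay is labelled LdHisRS but filed under L. infantum. Size under these conditions: about 69,000 compounds, about 410 of them at 50% or above in at least one test.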
TcHisRS: 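Histidine-tRNA ligase, Trypanosoma cruzi CL Brener (UniProt Q4DA54). Enzyme assay of histidyl-tRNA synthetase; the read-out is not stated. Compounds at 30 µM. Direction is inferred from retests: higher values go with stronger inhibition. Of about 69,000 compounds tested this way, about 31 (0.045%) reached 50% or more in at least one test.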

Amino acid sequences for entries named in this document (tags omitted). Residues count along the entry.
UniProt A4I591, 1-473: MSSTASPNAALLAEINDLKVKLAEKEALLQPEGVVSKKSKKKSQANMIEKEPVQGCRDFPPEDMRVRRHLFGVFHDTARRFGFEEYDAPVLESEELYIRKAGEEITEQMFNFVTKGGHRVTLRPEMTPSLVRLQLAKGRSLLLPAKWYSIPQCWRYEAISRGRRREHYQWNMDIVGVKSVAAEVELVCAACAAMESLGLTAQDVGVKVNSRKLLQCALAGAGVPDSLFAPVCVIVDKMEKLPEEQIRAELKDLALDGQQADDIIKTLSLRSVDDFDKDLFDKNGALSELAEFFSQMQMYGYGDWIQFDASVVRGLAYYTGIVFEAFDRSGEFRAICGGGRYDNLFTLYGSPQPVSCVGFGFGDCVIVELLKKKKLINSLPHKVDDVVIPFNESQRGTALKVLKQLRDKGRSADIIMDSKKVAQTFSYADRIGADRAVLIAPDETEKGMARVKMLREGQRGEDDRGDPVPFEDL
UniProt Q4DA54, 1-478: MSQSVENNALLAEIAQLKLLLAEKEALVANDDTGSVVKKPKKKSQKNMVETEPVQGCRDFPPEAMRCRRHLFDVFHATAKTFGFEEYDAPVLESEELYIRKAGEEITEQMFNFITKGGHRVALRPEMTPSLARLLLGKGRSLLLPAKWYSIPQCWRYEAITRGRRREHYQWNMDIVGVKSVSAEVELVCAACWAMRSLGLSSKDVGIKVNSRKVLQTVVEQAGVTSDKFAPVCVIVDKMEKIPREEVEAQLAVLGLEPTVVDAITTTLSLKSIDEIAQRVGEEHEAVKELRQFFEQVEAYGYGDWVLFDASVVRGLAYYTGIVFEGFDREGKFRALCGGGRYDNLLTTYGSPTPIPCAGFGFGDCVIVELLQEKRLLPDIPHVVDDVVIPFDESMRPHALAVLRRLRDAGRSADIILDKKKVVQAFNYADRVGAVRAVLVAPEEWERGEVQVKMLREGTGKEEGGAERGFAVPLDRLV

The filed quantity is “Percent Effect” (%).
The record does not define 0% and 100%; most values in the screen are far below 50% and negative numbers occur (in some assays of this library far below -100).
The compounds are a random part of those screened.

- CCN(Cc1ccncc1)CC1(O)CCN(C(=O)c2cccc(C)n2)C1 (centres undefined) : LiHisRS: 15.79%; TcHisRS: 3.731%
- CC(C)c1noc(C(C)N2CCN(CCN3CCCC3=O)CC2)n1 (centres undefined) : LiHisRS: 23.81%; TcHisRS: 0.7519%
- CCOc1ccc(Cl)c(C(=O)NCc2ccc(C(=O)NC)cc2)n1 : LiHisRS: 6.383%; TcHisRS: 3.817%
- COc1ccc(C(C)NC(=O)Nc2nnc(C)s2)c(OC)c1 (centres undefined) : LiHisRS: 22.95%; TcHisRS: 11.63%
- Cc1cc(CN2C[C@@H]3COC[C@@H](C(=O)N4CCCCO4)[C@@H]3C2)oc1C : LiHisRS: 20%; TcHisRS: 4.902%
- CCCn1nc2c(cc1=O)CN(Cc1nc(-c3ccoc3)no1)CC2 : LiHisRS: 2.667%; TcHisRS: 8.152%
- CN(C)CC1(O)CCN(S(=O)(=O)c2ccc(F)c(F)c2)C1 (centres undefined) : LiHisRS: 27.78%; TcHisRS: -3.784%
- OCC1(CCOc2ccccc2)CCN(c2ccc(Cl)cn2)CC1 : LiHisRS: 13.33%; TcHisRS: 10.3%
- CS(=O)(=O)N[C@H]1COC[C@@H]2CN(Cc3ccco3)C[C@@H]21 : LiHisRS: -1.389%; TcHisRS: -1.905%
- Cc1cccc(N(CCC(N)=O)CC(=O)NC2CCCC2)c1 : LiHisRS: 17.2%; TcHisRS: 4.938%
- COc1ccc(-c2ccc(C(=O)N3CCOCC3CC(=O)O)o2)cc1 (centres undefined) : LiHisRS: 6.557%; TcHisRS: 1.288%
- O=C1CCC(=O)N1CCn1nnc(-c2ccc(Br)cc2)n1 : LiHisRS: 6.218%; TcHisRS: 1.657%
- CNc1ccnc(NCCC(=O)Nc2ccccc2OC)n1 : LiHisRS: 9.836%; TcHisRS: 4%
- CN1C(=O)CC2(CCN(Cc3cnn(C)c3)CC2)c2ccccc21 : LiHisRS: 12.28%; TcHisRS: 6.452%
- O=C(NC[C@@H]1CCCN1)c1cc(COc2cccc(C(F)(F)F)c2)[nH]n1 : LiHisRS: 20.19%; TcHisRS: 3.252%
- Cn1nc2c(cc1=O)CN(Cc1nnc(-c3ccc(F)cc3)o1)CC2 : LiHisRS: 78.72%; TcHisRS: 3.817%
- COc1ccccc1OC1(C(=O)O)CCN(c2nccnc2C)CC1 : LiHisRS: 11.43%; TcHisRS: 3.306%
- Cc1cccnc1NC(=O)NC(CCO)C(C)(C)C (centres undefined) : LiHisRS: 10.2%; TcHisRS: 4.103%
- CN(C)CCC1CCCCN1Cc1cnn(C)c1C1CC1 (centres undefined) : LiHisRS: -1.333%; TcHisRS: 5.202%
- CC(C)n1c2ccccc2c2c1cc(C(=O)N(C)C)n2S(C)(=O)=O : LiHisRS: -0.9091%; TcHisRS: 2.116%
- O=C(NS(=O)(=O)c1cccc(C(F)(F)F)c1)c1cnsn1 : LiHisRS: 0%; TcHisRS: 3.614%
- COc1cccc(C(=O)N2CCCC(C(=O)CCc3ccccc3)C2)c1 (centres undefined) : LiHisRS: 15.38%; TcHisRS: -0.8264%
- CCC(NC(=O)c1cc(CC(C)C)nn1C)c1ccnn1C (centres undefined) : LiHisRS: 5.263%; TcHisRS: 0%
- CC(=O)Nc1cc(C(=O)N2CCOCC2c2ccc(C)o2)ccc1F (centres undefined) : LiHisRS: 6.796%; TcHisRS: 3.734%
- CCC(=O)c1ccc(OCC(=O)NC(C)Cc2cc(C)n[nH]2)cc1 (centres undefined) : LiHisRS: 6.593%; TcHisRS: 0.6024%
- O=C1C[C@H]2[C@H](CCN2C(=O)c2ccno2)N1CC1CC1 : LiHisRS: 3.774%; TcHisRS: 3.333%
- N#Cc1ccccc1OCCN1CCCCC1Cn1cncn1 (centres undefined) : LiHisRS: 28.57%; TcHisRS: 9.023%
- CC(C)N1CCOC[C@H]1c1nc(C(C)(C)C)c[nH]1 : LiHisRS: 14.86%; TcHisRS: 6.522%
- N#Cc1csc(CNCCOc2ccccc2)c1 : LiHisRS: 12.86%; TcHisRS: 4.255%
- Cc1cnc(N2C[C@@H]3CCN(CC(=O)N(C)C)C(=O)[C@H]3C2)nc1 : LiHisRS: 18%; TcHisRS: 4.598%
- Cc1cnn(CC2CCCN2CC(=O)Nc2cc(C(C)(C)C)no2)c1 (centres undefined) : LiHisRS: 18.75%; TcHisRS: 2.662%
- COCCN(CC1CCCN(C2Cc3ccccc3C2)C1)C(=O)CO (centres undefined) : LiHisRS: -14.71%; TcHisRS: 2.646%
- O=S(=O)(c1cccnc1)N1CCCCC1CCN1CCOCC1 (centres undefined) : LiHisRS: -1.667%; TcHisRS: 3.478%
- O=C(c1ccc[nH]1)N1CCCC(c2cc(C(F)(F)F)[nH]n2)C1 (centres undefined) : LiHisRS: 1.515%; TcHisRS: 0%
- O=C(c1cnc2ccc(F)cc2c1NCc1ccco1)N1CCCCC1 : LiHisRS: 7.692%; TcHisRS: 1.031%
- Cc1cc2nc(C(C)C)cc(N(C)CC3CCCN(CCO)C3)n2n1 (centres undefined) : LiHisRS: 18.37%; TcHisRS: 6.154%
- Cc1nn(C)c2c(=O)n(C(C)C)c(NCCc3ccccc3)nc12 : LiHisRS: 1.724%; TcHisRS: 3.478%
- CC(C)c1nc(C(=O)NCCn2ccnc2)nn1-c1cccc(F)c1 : LiHisRS: -10.61%; TcHisRS: 0.7576%
- Cc1cc(CN2CCC(C(=O)O)(n3ccc(-c4ccco4)n3)CC2)on1 : LiHisRS: 15.96%; TcHisRS: -16.08%
- CCOC1COC2(CCN(Cc3cccnc3OC)CC2)C1 (centres undefined) : LiHisRS: 9.434%; TcHisRS: 2.222%
- O=C1NCC2(CCCN(C(=O)Nc3cccc(-c4cscn4)c3)CC2)O1 (centres undefined) : LiHisRS: -5%; TcHisRS: -3.896%
- Cc1ccc(N2CCN(C(=O)CN3C[C@@H]4CC[C@H]3C4)CC2=O)cc1 : LiHisRS: 6.993%; TcHisRS: 6.468%

The first 4 entries again:

| compound | LiHisRS | TcHisRS |
|---|---|---|
| `CCN(Cc1ccncc1)CC1(O)CCN(C(=O)c2cccc(C)n2)C1` (centres undefined) | 15.79 | 3.731 |
| `CC(C)c1noc(C(C)N2CCN(CCN3CCCC3=O)CC2)n1` (centres undefined) | 23.81 | 0.7519 |
| `CCOc1ccc(Cl)c(C(=O)NCc2ccc(C(=O)NC)cc2)n1` | 6.383 | 3.817 |
| `COc1ccc(C(C)NC(=O)Nc2nnc(C)s2)c(OC)c1` (centres undefined) | 22.95 | 11.63 |

Data taken from ChEMBL document CHEMBL3988442, “University of Dundee, Small-Polar-MMV Screening Library” (2021).